Residue numbers refer to the chain shown, from its start. No constants are given. Whether binding was seen depends on the method and setting. Binding seen in cells or lysates may run through a third protein. Binding calls can cover weak binding; strength is not graded here. For some of these results: Sequences can lack the tags named with a protein.
How the values were obtained:
Experiment in all cases: co-IP; 293T cells co-transfected with the indicated plasmids, 72 h, Brij97 lysis buffer, immunoprecipitated with anti-HA or anti-Flag antibody with mouse IgG as a control, immunoblot
[1] = target: T1, Phafin2 subfragment: PH domain (human) (UniProt Q9H8W4)
T1 sequence: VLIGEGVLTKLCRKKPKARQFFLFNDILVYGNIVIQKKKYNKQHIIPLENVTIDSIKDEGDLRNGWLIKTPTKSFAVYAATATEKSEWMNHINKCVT

[2] = target: T2, PtdIns(3)P interaction-defective mutant Phafin2 (R53C, R171A, and R172A) (human) (UniProt Q9H8W4)
T2 sequence: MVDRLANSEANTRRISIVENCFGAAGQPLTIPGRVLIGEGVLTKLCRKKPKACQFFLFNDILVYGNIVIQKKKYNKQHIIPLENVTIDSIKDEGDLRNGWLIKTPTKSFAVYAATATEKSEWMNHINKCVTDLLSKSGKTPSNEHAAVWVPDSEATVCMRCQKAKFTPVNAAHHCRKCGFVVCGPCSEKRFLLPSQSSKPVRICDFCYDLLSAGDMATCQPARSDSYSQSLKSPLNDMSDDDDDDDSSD

[3] = target: T3, Flag-tagged Phafin2 (human) (UniProt Q9H8W4)
T3 sequence: T2 sequence with C53R, A171R, A172R

Substance	binding [1]	binding [2]	binding [3]
HA-Akt (isoform not stated) (human) (enzyme)	binds	binds	binds
HA-Akt subfragment: C-terminal Akt kinase domain (human) (domain or fragment)			binds

From publication PMC3885392
